Values from PubChem BioAssay AID1259254 (NCATS, 2017)
The deposit covers about 59,000 reagents; below is an unselected part. About 1,550 of all reagents (2.6%) were called active. 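G2 share is only a proxy for re-replication; each gene was hit by three separate siRNAs, and active genes were retested.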 Reagents against one gene are numbered here. Not all columns of the deposit are shown. Reagent sequences are not shown. The record does not give: the amount of reagent.

- Test: 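Genome-wide screen for genes that prevent DNA re-replication in cancer cells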 (primary screen)
- System: human HCT116 colorectal cancer cells
- Reagent: single siRNA against human genes
- Timing: 3 days
- Measurement: 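Imaged Hoechst DNA stain sorts each cell into a cycle phase by DNA amount; per plate, G2 fraction set to 0% for non-targeting and 100% for GMNN siRNA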
- Scale: G2 robust z-score and G2 cells, % of GMNN control: higher = more G2 cells, more excess DNA replication
- Hit rule: 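Active siRNAs have a G2 robust z of 5 or more median absolute deviations over the median, which in these data means about 38% or higher of GMNN control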

G2 robust z-score	G2 cells, % of GMNN control	Outcome	gene symbol	siRNA no.
-0.483	-0.432	inactive	NFYA	1
-0.132	2.04	inactive	NFYA	2
0.552	6.85	inactive	NFYA	3
-0.548	-0.887	inactive	XPO4	1
1.14	11	inactive	XPO4	2
0.335	5.33	inactive	XPO4	3
-1.05	-4.41	inactive	CDHR4	1
-0.0473	2.63	inactive	CDHR4	2
-0.659	-1.67	inactive	CDHR4	3
1.3	12.1	inactive	RMDN2	1
-0.449	-0.191	inactive	RMDN2	2
-0.697	-1.93	inactive	RMDN2	3
-1.16	-5.17	inactive	ACADVL	1
-0.729	-2.16	inactive	ACADVL	2
-0.476	-0.382	inactive	ACADVL	3
-0.462	-0.284	inactive	EEF1A1P33	1
0.652	7.55	inactive	EEF1A1P33	2
-0.782	-2.53	inactive	EEF1A1P33	3
0.148	4.01	inactive	ZDHHC21	1
-0.754	-2.34	inactive	ZDHHC21	2
1.21	11.5	inactive	ZDHHC21	3
-0.166	1.8	inactive	LCORL	1
-0.732	-2.18	inactive	LCORL	2
1.45	13.2	inactive	LCORL	3
-0.784	-2.55	inactive	DAOA	1
0.371	5.58	inactive	DAOA	2
-0.307	0.809	inactive	DAOA	3
19.4	139	active	FBXO5	1
11.4	82.8	active	FBXO5	2
19.7	141	active	FBXO5	3
0.172	4.18	inactive	PNO1	1
-0.121	2.11	inactive	PNO1	2
3.16	25.2	inactive	PNO1	3
-0.474	-0.366	inactive	MEF2C	1
-1.28	-6.03	inactive	MEF2C	2
-0.317	0.74	inactive	MEF2C	3
-0.853	-3.03	inactive	PAXIP1	1
0.938	9.57	inactive	PAXIP1	2
0.826	8.78	inactive	PAXIP1	3
-0.287	0.949	inactive	PHYHIPL	1
1.16	11.1	inactive	PHYHIPL	2
0.672	7.69	inactive	PHYHIPL	3
-0.775	-2.48	inactive	TSLIG3A	1
0.119	3.81	inactive	TSLIG3A	2
-0.416	0.044	inactive	TSLIG3A	3
0.00232	2.98	inactive	RNF44	1
1.99	17	inactive	RNF44	2
-0.728	-2.16	inactive	RNF44	3
4.22	32.6	inactive	PHLDB1	1
1.28	12	inactive	PHLDB1	2
1.41	12.9	inactive	PHLDB1	3
2.51	20.6	inactive	KRTAP5-7	1
0.455	6.17	inactive	KRTAP5-7	2
1.87	16.1	inactive	KRTAP5-7	3
0.252	4.74	inactive	GDF9	1
5.73	43.3	active	GDF9	2
-1	-4.09	inactive	GDF9	3
-0.87	-3.15	inactive	CXXC5	1
0.0883	3.59	inactive	CXXC5	2
0.0105	3.04	inactive	CXXC5	3
0.688	7.81	inactive	MIR9-1HG	1
-0.892	-3.31	inactive	MIR9-1HG	2
0.853	8.97	inactive	MIR9-1HG	3
3.86	30.2	inactive	GPRIN1	1
1.23	11.6	inactive	GPRIN1	2
-0.903	-3.39	inactive	GPRIN1	3
-0.864	-3.11	inactive	TRAPPC11	1
0.426	5.96	inactive	TRAPPC11	2
-0.036	2.71	inactive	TRAPPC11	3
-0.901	-3.37	inactive	FGF21	1
2.03	17.2	inactive	FGF21	2
-0.156	1.87	inactive	FGF21	3
1.11	10.8	inactive	SEZ6	1
-0.0958	2.29	inactive	SEZ6	2
-0.865	-3.12	inactive	SEZ6	3
0.57	6.98	inactive	BCAR3	1
0.44	6.07	inactive	BCAR3	2
2.41	20	inactive	BCAR3	3
-1.13	-5	inactive	LIMK1	1
-0.849	-3.01	inactive	LIMK1	2
-0.456	-0.243	inactive	LIMK1	3
0.237	4.64	inactive	CLCN7	1
-0.556	-0.944	inactive	CLCN7	2
3.98	31	inactive	CLCN7	3
-0.266	1.1	inactive	ELF1	1
0.0603	3.39	inactive	ELF1	2
0.778	8.44	inactive	ELF1	3

Reprinted from the entries so far for reference:
G2 robust z-score	G2 cells, % of GMNN control	Outcome	gene symbol	siRNA no.
-0.849	-3.01	inactive	LIMK1	2
-0.456	-0.243	inactive	LIMK1	3
0.237	4.64	inactive	CLCN7	1
-0.556	-0.944	inactive	CLCN7	2
3.98	31	inactive	CLCN7	3
